# Test results published in US20200255478A1 (Almirall, S.A., priority 2017, published 2020).
# For part of these data: Strings that start with PEPTIDE1 are HELM notation: dots part the residues, brackets hold end groups and non-standard residues.
# Test: general procedure: Fmoc solid-phase peptide synthesis; Fmoc-Rink amide AM PS; DIPCDI with OxymaPure; in some cases HBTU in DIEA
# Conditions: whole synthesis, analytical RP-HPLC
row,Substance,final HPLC purity [%]
1,"{[Acetyl-Cys(&^1)-Asp-Ala-Glu-Thr-Gly-Glu-Cys(&^2)-NH2]-[&^1(1,2-phenylenediyl)dimethylene&^2]}",99.9
2,"{[Acetyl-Cys(&^1)-Asp-Glu-Glu-Thr-Gly-Glu-Cys(&^2)-NH2][&^1(1,1′-biphenyl)2,2′-diyldimethylene&^2]}",99.9
3,"{[Stearyl-Ala-Leu-Gln-Cys(&^1)-Asp-Pro-Glu-Thr-Gly-Glu-Cys(&^2)-Leu-Pro-NH2][&^1(1,3,5-nimethylbenzene)2,4-diyldimethylene&^2]}",94.5
4,"{[Stearyl-Ala-Leu-Gln-Cys(&^1)-Asp-Pro-Glu-Thr-Gly-Glu-Cys(&^2)-Leu-Pro-NH2][&^1(3,4,5,6-tenafluorobenzene)1,2-diyldimethylene&^2]}",91.7
5,"{[Stearyl-Ala-Leu-Gln-Cys(&^1)-Asp-Pro-Glu-Thr-Gly-Glu-Cys(&^2)-MeLeu-Pro-NH2][&^1(1,2-phenylenediyl)dimethylene&^2]}",99.5

# Same assay, conditions: whole synthesis, analytical RP-HPLC, trifluoroacetate salt
row,Substance,final HPLC purity [%]
1,"{[Acetyl-Cys(&^1)-Asp-Ala-Glu-Thr-Gly-Glu-Cys(&^2)-βAla-Arg-Lys-Lys-Arg-Arg-Gln-Arg-Arg-Arg-NH2][&^1(1,2-phenylenediyl)dimethylene&^2]}",99.9
2,"{[H-Leu-Gln-Cys(&^1)-Asp-Ala-Glu-Thr-Gly-Glu-Cys(&^2)-Leu-Pro-βAla-Arg-Lys-Lys-Arg-Arg-Gln-Arg-Arg-Arg-NH2][&^1(1,2-phenylenediyl)dimethylene&^2]}",99.9
3,"{[H-Leu-Gln-Cys(&^1)-Asp-Ala-Glu-Thr-Gly-Glu-Cys(&^2)-Leu-Pro-βAla-Arg-Lys-Lys-Arg-Arg-Gln-Arg-Arg-Arg-NH2][&^1(1,3-phenylenediyl)dimethylene&^2]}",99.9
4,"{[H-Leu-Gln-Cys(&^1)-Asp-Ala-Glu-Thr-Gly-Glu-Cys(&^2)-Leu-Pro-βAla-Tyr-Ala-Arg-Ala-Ala-Ala-Arg-Gln-Ala-Arg-Ala-NH2][&^1(1,3-phenylenediyl)dimethylene&^2]}",99.9
5,"{[H-Leu-Leu-Cys(&^1)-Asp-Pro-Glu-Thr-Gly-Glu-Cys(&^2)-Leu-Leu-βAla-Arg-Lys-Lys-Arg-Arg-Gln-Arg-Arg-Arg-NH2][&^1(naphthalene)2,3-diyldimethylene&^2]}",96.0

# Test: general procedure: Fmoc solid-phase peptide synthesis; H-Rink amide AM ChemMatrix (0.40 mmol/g); DIPCDI with OxymaPure; in some cases HBTU in DIEA
# Conditions: whole synthesis, analytical RP-HPLC
row,Substance,final HPLC purity [%]
1,"PEPTIDE1{[Stearyl].P.Q.C.D.P.E.T.G.E.C.L.[dP].[am]}|CHEM1{[oXyl]}$PEPTIDE1,CHEM1,4:R3-1:R1|PEPTIDE1,CHEM1,11:R3-1:R2$$$V2.0",94.5

# Test: general procedure: Fmoc solid-phase peptide synthesis; Fmoc-Rink amide AM ChemMatrix resin (0.49 mmol/g); DIPCDI with OxymaPure; in some cases HBTU in DIEA
# Conditions: whole synthesis, analytical RP-HPLC
row,Substance,final HPLC purity [%]
1,"PEPTIDE1{[XStehee1b45].[XbAh1c76e8].V.V.[XCysLh45a958].D.P.E.T.G.E.C.V.V.[am]}$PEPTIDE1,PEPTIDE1,5:R3-12:R3$$$V2.0",91.7
